PubChem BioAssay AID1259308 – NCATS | 2017
In all, the deposit lists about 59,000 reagents; below is a random part of them. Over the whole deposit, about 1,510 (2.6%) are marked active. 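Calls use total luciferase alone and ignore viability, so some active siRNAs may act by altering cell number.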 A number with no mark means an inactive call. The numbers tell different reagents against one gene apart. Further read-outs or replicates are left out here.

Aim: 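Genes whose loss raises luciferase production in HEK293 cells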 (primary screen)
Cells: human HEK293 embryonic kidney cells stably expressing firefly luciferase (HEK-CMV-Luc2-Hygro)
Knock-down reagent: single siRNA against human genes, 0.8 pmol siRNA per well
Duration: 72 h
Measured: 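Luciferase light (ONE-Glo) measured on one replicate plate set and viability (CellTiter-Glo) on the other, scaled to a negative control siRNA, with robust z-scores and luciferase per cell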
Scale: total luciferase, z-score and total luciferase, % of control: higher = more reporter protein produced
Call rule: 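Active when the median/MAD z-score for overall luciferase is greater than 3; a gene was taken forward for validation with new siRNAs if at least two of its three siRNAs passed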
Meaning of the calls: active = raised luciferase; inactive = no rise

ITGBL1 #1 → total luciferase, z-score = -0.335; total luciferase, % of control = 75.2
ITGBL1 #2 → total luciferase, z-score = 4.61 (active); total luciferase, % of control = 174
ITGBL1 #3 → total luciferase, z-score = -1.06; total luciferase, % of control = 60.9
LIMD1 #1 → total luciferase, z-score = 0.76; total luciferase, % of control = 97
LIMD1 #2 → total luciferase, z-score = 0.398; total luciferase, % of control = 89.8
LIMD1 #3 → total luciferase, z-score = -0.475; total luciferase, % of control = 72.4
RHBG #1 → total luciferase, z-score = -0.958; total luciferase, % of control = 62.8
RHBG #2 → total luciferase, z-score = 0.438; total luciferase, % of control = 90.6
RHBG #3 → total luciferase, z-score = -0.221; total luciferase, % of control = 77.5
MACIR #1 → total luciferase, z-score = -0.0871; total luciferase, % of control = 80.2
MACIR #2 → total luciferase, z-score = 0.195; total luciferase, % of control = 85.8
MACIR #3 → total luciferase, z-score = 0.802; total luciferase, % of control = 97.8

Taken from above:
Entry of ITGBL1 #2 in “total luciferase, % of control”: 174 (active)
For “total luciferase, % of control”, LIMD1 #3 reads 72.4
